This is one part of the list.
How the values were obtained:
Assay in all cases: log2 fold change, soluble protein after heating vs DMSO (PISA); higher = thermal stabilisation; K562 cells, 10 uM, 30 min; active = over 0.2 and 3.5 SD of the protein, either way, in both replicates (recomputed)
[1] = compound: C1=CC=C(C=C1)[C@H](COC2=CC3=C(C=C2)NC(=O)N3)NC(=O)C4=CC=CN(C4=O)CC5=CC(=C(C=C5)F)F
In short: (§1)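 K562 cells at 2×10^6 cells/mL were treated with 10 μM compound for 30 min. Aliquots were heated for 3 min across 48°C-58°C, pooled, and extracted in PBS with 0.5% NP-40 at 4°C; soluble protein was the supernatant after 21,000xg for 90 min. Soluble protein was quantified by TMTpro 16plex LC-MS/MS with channel sums equalised, and reported as log2 fold change in thermal stability against DMSO controls, with values from duplicates.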

Amino acid sequences for entries named in this document (tags omitted). A change or cut given only in a name is not applied to a line headed by its entry.
UniProt Q8IWE5: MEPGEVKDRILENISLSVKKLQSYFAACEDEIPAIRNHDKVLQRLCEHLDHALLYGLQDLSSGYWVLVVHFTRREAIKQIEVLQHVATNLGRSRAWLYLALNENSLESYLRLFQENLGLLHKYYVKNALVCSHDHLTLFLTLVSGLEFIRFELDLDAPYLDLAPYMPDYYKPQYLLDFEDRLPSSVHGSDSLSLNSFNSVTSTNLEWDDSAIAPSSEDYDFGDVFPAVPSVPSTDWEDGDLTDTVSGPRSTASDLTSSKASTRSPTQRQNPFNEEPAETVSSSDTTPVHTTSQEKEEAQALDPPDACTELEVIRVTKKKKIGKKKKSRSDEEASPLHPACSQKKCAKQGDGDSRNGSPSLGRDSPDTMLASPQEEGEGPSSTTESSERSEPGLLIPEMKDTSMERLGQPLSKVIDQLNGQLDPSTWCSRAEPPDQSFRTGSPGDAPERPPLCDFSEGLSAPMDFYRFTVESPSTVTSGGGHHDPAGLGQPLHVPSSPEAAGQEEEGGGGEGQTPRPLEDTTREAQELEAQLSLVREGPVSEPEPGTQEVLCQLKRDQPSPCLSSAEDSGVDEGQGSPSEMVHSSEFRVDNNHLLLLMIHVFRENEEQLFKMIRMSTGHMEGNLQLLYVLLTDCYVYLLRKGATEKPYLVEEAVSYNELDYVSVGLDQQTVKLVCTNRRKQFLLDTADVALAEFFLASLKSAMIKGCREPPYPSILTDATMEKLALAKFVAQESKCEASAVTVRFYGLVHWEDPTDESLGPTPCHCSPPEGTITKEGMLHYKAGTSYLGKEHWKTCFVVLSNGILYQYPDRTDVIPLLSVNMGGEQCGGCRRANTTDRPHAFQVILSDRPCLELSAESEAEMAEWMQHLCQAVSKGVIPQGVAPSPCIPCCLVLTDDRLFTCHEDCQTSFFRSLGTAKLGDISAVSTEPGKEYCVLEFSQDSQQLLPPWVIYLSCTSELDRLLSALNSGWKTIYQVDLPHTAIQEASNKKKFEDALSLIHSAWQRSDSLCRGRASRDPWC
UniProt O75417: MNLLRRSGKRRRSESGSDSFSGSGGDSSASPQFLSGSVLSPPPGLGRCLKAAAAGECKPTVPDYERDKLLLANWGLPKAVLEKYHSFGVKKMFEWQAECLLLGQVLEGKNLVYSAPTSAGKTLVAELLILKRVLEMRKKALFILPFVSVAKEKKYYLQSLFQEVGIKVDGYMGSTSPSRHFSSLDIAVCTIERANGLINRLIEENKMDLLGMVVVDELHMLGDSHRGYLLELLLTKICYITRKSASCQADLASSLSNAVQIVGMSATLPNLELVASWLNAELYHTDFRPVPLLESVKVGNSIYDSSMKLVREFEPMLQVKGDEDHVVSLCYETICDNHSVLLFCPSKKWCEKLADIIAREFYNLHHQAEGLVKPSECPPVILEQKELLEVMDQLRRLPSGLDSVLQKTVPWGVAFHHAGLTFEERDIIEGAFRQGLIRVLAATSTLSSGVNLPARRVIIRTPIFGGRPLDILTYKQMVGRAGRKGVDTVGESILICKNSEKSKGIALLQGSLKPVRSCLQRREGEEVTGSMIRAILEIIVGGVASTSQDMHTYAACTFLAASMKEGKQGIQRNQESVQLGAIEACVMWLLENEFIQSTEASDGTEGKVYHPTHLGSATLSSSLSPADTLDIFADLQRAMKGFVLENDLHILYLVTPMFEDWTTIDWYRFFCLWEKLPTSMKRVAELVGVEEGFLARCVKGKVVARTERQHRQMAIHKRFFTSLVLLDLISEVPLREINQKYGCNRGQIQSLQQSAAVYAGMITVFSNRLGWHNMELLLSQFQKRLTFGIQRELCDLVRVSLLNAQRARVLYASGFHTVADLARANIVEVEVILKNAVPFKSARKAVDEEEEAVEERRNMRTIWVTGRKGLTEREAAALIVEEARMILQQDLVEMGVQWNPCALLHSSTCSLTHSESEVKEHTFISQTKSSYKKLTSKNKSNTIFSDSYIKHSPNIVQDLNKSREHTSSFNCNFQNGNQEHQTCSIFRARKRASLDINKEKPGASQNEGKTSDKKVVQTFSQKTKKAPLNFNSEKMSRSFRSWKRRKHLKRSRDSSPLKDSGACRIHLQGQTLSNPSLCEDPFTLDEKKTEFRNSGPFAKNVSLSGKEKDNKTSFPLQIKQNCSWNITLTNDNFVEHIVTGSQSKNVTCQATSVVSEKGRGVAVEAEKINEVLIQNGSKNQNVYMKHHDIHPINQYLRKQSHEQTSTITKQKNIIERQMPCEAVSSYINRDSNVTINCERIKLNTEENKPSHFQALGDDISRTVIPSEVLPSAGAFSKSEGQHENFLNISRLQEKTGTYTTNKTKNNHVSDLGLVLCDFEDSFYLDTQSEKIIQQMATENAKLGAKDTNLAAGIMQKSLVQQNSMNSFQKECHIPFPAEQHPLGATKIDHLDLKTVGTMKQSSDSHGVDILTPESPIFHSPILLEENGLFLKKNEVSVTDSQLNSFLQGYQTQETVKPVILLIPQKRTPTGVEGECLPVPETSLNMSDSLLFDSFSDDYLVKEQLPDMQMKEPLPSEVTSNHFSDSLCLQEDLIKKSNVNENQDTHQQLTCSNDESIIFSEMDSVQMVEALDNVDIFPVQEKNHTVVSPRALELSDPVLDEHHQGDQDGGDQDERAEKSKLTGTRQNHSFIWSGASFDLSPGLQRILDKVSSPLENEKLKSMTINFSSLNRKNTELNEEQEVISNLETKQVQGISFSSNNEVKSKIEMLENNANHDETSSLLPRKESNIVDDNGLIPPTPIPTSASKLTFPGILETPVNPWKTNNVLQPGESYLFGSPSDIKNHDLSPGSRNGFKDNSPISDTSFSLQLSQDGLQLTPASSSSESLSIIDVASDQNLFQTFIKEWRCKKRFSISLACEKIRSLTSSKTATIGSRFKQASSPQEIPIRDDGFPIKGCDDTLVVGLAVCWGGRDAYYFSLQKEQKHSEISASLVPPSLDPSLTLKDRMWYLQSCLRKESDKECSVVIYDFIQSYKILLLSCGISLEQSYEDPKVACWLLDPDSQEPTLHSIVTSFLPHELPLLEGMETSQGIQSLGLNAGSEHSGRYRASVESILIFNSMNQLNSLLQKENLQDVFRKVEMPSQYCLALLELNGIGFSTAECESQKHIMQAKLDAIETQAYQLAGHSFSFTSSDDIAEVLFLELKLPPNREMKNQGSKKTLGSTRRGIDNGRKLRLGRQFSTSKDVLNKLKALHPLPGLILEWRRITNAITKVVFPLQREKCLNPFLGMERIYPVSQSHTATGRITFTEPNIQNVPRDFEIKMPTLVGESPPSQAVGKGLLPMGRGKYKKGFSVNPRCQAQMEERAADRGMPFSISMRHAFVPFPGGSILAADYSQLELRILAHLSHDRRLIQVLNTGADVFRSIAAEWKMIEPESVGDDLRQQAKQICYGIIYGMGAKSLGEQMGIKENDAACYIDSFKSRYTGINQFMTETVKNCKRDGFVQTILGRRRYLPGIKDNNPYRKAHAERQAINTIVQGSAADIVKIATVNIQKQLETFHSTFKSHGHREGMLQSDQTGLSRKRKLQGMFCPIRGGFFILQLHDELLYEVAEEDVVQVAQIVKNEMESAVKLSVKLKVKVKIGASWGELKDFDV
UniProt Q9NR33: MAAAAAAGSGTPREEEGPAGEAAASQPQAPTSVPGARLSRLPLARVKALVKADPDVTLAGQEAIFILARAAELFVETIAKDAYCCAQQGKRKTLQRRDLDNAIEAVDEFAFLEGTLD
UniProt Q96AD5: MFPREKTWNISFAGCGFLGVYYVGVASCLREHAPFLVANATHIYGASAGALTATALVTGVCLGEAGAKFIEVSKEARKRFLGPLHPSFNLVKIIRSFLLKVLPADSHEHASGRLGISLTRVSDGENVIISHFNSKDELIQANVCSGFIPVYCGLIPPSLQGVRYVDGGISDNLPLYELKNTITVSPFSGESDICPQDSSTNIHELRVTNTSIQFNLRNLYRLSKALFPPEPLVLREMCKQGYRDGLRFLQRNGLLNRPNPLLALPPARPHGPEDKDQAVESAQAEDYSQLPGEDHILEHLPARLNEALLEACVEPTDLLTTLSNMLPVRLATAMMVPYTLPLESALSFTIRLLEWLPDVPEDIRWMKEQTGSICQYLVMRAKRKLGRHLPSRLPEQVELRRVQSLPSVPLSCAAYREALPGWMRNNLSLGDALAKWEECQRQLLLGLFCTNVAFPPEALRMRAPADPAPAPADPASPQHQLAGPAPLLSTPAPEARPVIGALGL
UniProt O75439: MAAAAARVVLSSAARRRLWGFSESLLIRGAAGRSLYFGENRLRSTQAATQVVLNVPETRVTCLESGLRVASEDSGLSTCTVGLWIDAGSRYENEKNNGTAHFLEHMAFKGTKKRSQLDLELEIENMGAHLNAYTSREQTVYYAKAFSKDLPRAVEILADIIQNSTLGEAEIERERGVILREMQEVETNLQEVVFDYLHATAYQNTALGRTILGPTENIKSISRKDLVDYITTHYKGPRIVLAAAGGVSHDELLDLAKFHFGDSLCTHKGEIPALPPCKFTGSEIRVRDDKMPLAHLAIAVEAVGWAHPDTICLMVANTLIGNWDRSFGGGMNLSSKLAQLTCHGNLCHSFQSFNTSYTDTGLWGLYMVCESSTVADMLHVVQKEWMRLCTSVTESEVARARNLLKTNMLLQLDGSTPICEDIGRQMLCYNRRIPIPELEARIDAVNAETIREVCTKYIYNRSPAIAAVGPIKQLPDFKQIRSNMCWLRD
UniProt Q13794: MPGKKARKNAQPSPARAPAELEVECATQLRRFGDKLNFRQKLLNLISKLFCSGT
UniProt Q9BT43: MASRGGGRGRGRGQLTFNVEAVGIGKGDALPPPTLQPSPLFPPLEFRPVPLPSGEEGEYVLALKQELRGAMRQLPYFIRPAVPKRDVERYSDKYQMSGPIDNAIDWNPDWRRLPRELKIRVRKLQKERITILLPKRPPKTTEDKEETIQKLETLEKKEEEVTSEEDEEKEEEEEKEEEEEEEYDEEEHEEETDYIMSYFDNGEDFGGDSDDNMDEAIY
UniProt Q99575: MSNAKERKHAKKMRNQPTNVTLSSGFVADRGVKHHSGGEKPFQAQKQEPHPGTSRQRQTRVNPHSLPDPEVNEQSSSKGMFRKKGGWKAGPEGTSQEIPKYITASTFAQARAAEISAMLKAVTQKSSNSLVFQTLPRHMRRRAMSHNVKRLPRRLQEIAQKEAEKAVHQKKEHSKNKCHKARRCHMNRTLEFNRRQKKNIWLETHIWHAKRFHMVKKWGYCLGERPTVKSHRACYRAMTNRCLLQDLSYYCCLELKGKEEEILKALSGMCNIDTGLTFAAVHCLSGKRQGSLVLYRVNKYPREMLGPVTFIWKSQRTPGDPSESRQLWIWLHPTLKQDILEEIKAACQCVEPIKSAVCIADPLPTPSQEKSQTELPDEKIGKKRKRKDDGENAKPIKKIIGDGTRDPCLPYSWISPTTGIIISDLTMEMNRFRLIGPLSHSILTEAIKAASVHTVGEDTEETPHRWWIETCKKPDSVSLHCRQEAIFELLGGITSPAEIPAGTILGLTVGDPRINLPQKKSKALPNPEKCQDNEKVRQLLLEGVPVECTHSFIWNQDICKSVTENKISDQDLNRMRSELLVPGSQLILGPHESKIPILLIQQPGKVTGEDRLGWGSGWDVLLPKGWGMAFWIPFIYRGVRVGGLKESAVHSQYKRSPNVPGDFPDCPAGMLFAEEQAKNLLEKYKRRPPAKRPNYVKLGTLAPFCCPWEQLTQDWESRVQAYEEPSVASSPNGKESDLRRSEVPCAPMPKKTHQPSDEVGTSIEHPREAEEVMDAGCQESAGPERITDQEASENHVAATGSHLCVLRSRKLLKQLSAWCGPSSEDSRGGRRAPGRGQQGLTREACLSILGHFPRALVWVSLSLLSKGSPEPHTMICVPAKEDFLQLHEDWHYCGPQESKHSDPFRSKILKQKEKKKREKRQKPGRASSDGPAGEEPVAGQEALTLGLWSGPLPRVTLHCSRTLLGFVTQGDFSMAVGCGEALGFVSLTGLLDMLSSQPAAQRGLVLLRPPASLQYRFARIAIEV
UniProt Q10713: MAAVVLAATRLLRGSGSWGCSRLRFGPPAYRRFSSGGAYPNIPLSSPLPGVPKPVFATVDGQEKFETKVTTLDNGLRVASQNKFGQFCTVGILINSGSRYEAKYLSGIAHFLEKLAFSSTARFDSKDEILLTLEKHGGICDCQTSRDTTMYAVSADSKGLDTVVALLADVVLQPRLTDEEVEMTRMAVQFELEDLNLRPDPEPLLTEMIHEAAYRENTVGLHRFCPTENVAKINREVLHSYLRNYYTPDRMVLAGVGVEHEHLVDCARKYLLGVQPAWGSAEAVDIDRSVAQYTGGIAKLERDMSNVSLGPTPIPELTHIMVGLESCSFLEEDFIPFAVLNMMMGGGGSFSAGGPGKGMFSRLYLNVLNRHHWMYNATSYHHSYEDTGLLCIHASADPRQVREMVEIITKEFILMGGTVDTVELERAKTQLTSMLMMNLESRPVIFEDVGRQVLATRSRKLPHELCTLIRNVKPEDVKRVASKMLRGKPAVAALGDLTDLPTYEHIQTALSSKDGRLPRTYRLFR

[2] = compound: CC1=C(SC2=C1C(=N[C@H](C3=NN=C(N32)C)CC(=O)N)C4=CC=C(C=C4)Cl)C
In short: as §1

[3] = compound: CC1=C2C(=CC=C1)N=C(N(C2=O)C3=CC=CC=C3C)CN4C=NC5=C(N=CN=C54)N
In short: as §1

[4] = compound: Cc1sc2c(c1C)C(c1ccc(Cl)cc1)=N[C@@H](CC(=O)OC(C)(C)C)c1nnc(C)n1-2
In short: as §1

[5] = compound: c1ccc([C@@H]2C[C@H]2NC2CCNCC2)cc1
In short: as §1

Measured: log2 fold change

POLD2 (UniProt P49005)
inactive: [1] -0.028 | [2] 0.049 | [3] 0.082 | [4] -0.012 | [5] 0.009

PPFIA2 (UniProt O75334)
inactive: [1] -0.011 | [2] 0.161 | [3] -0.012 | [4] 0.06 | [5] -0.191

PPIG (UniProt Q13427)
inactive: [1] -0.295

POLR2B (UniProt P30876)
inactive: [1] -0.028 | [2] 0.105 | [3] 0.047 | [4] 0.159 | [5] -0.053

PLEKHM2 (UniProt Q8IWE5)
inactive: [1] -0.027 | [2] 0.076 | [3] -0.016 | [4] 0.089 | [5] -0.048

POLQ (UniProt O75417)
inactive: [1] -0.004

POM121C (UniProt A8CG34)
inactive: [1] 0.198

PLS1 (UniProt Q14651)
inactive: [1] -0.055 | [2] 0.049 | [3] 0.066 | [4] 0 | [5] -0.004

PLSCR1 (UniProt O15162)
inactive: [1] 0.017 | [2] 0.036 | [3] -0.016 | [4] -0.051 | [5] 0.055

PML (UniProt P29590)
inactive: [1] -0.008 | [2] -0.054 | [3] 0.002 | [4] -0.005 | [5] 0.001

PPID (UniProt Q08752)
inactive: [1] -0.079 | [2] 0.031 | [3] 0.036 | [4] -0.035 | [5] -0.031

PNPT1 (UniProt Q8TCS8)
inactive: [1] -0.134 | [2] 0.073 | [3] 0.091 | [4] -0.011 | [5] -0.042

PLPP6 (UniProt Q8IY26)
inactive: [1] 0.018 | [2] -0.016 | [3] -0.182 | [4] -0.16 | [5] 0.151

POSTN (UniProt Q15063)
inactive: [1] -0.103 | [2] -0.057 | [3] 0.082 | [4] -0.102 | [5] -0.022

POGLUT1 (UniProt Q8NBL1)
inactive: [1] 0.039 | [2] -0.041 | [3] 0.082 | [4] 0.07 | [5] 0.015

PNPLA8 (UniProt Q9NP80)
inactive: [1] 0.024 | [2] 0.031 | [3] 0.007 | [4] -0.006 | [5] 0.024

PLXNA1 (UniProt Q9UIW2)
inactive: [1] -0.029 | [2] 0.069 | [3] 0.035 | [4] -0.003 | [5] 0.041

POLE4 (UniProt Q9NR33)
inactive: [1] 0.008 | [2] 0.189 | [3] 0.051 | [4] -0.089 | [5] 0.077

PLIN3 isoform 2 (UniProt O60664)
inactive: [1] 0.132

POLR2I (UniProt P36954)
inactive: [1] 0.063 | [2] 0.104 | [3] -0.163 | [4] 0.194 | [5] -0.035

PNPLA2 (UniProt Q96AD5)
inactive: [1] 0.06 | [2] 0.014 | [3] 0.037 | [4] 0.068 | [5] -0.046

PMPCB (UniProt O75439)
inactive: [1] 0.005 | [2] 0.111 | [3] 0.01 | [4] 0.012 | [5] -0.053

POMT2 (UniProt Q9UKY4)
inactive: [1] -0.185 | [2] -0.05 | [3] -0.068 | [4] -0.006 | [5] 0.027

PMAIP1 (UniProt Q13794)
inactive: [1] -0.105 | [2] 0.002 | [3] 0.034 | [4] 0.286 | [5] 0.035

POLR3GL (UniProt Q9BT43)
inactive: [1] 0

POLR2K (UniProt P53803)
inactive: [1] 0.053 | [2] 0.06 | [3] 0.046 | [4] 0.032 | [5] -0.056

POP1 (UniProt Q99575)
inactive: [1] 0.003 | [2] -0.028 | [3] 0.029 | [4] 0.017 | [5] -0.01

PMPCA (UniProt Q10713)
inactive: [1] -0.015 | [2] 0.121 | [3] 0.06 | [4] 0.018 | [5] -0.047

Reprinted from the results shown (2 entries):
POLR2K (UniProt P53803)
inactive: [1] 0.053 | [2] 0.06 | [3] 0.046 | [4] 0.032 | [5] -0.056

POP1 (UniProt Q99575)
inactive: [1] 0.003 | [2] -0.028 | [3] 0.029 | [4] 0.017 | [5] -0.01

Source: the supplement of paper PMC10849652
